From PMC3493487

Target: I27-I27-p53NTR+DBD(1-293)-I27-I27 (Homo sapiens) (UniProt P04637)
Experiment: AFM single-molecule force spectroscopy (mechanical unfolding pattern changed by DNA)
Conditions: 10 mM MgCl2, dsDNA:p53 molar ratio 1:2, 10:1 or 20:1; PBS (140 mM NaCl, 10 mM phosphate, 3 mM KCl, pH 7.4), 10 mM MgCl2, 10 mM DTT, room temperature (incubation on mica); 0.2-0.4 uM protein; recombinant protein; residues 1-293

“CCTAGACATGCCTAAT (double strand) [16-mer p53 consensus half-site dsDNA]”: binds.

Construct, isoform or probe ends are uncertain for at least one entry.
